Assay results reported in paper PMC9095880, “AIMP2-DX2 provides therapeutic interface to control KRAS-driven tumorigenesis” (Nature Communications, 2022).
No constants are given. Whether binding was seen depends on the method and setting. In cells and extracts the contact can be indirect. Here binding means that the protein was enriched with, or labelled near, the bait; the list need not be complete. Sequences can lack the tags named with a protein.

Molecular target: T1, Strep-DX2 (Strep-tagged AIMP2-DX2) (human) (UniProt Q13155)
T1 sequence: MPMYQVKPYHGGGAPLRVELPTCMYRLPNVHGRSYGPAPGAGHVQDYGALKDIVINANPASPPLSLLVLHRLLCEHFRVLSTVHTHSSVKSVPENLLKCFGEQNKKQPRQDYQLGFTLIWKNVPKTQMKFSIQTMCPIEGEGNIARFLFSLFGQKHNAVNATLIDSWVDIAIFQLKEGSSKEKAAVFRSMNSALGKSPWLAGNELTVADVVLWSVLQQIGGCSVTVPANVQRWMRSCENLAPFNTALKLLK
Experiment: affinity purification with mass spectrometry; H460 cells expressing Strep-DX2 or Strep-EV, EGF 30 min; 5 mg lysate on a strep-tactin column; in-gel digestion, LC-MS/MS (n = 1)

binding: binds
B1: peroxiredoxin 1 (PRDX1) (protein, UniProt Q06830 1-199)
chain: MSSGNAKIGHPAPNFKATAVMPDGQFKDISLSDYKGKYVVFFFYPLDFTFVCPTEIIAFSDRAEEFKKLNCQVIGASVDSHFCHLAWVNTPKKQGGLGPMNIPLVSDPKRTIAQDYGVLKADEGISFRGLFIIDDKGILRQITVNDLPVGRSVDETLRLVQAFQFTDKHGEVCPAGWKPGSDTIKPDVQKSKEYFSKQK
